The text below walks through data of publication PMC7819943, “Rice protein-binding microarrays: a tool to detect cis-acting elements near promoter regions in rice”.

Sequences of proteins named here, by UniProt entry; tags and fusion partners are left off.
UniProt Q0JBA9, entry or part of it: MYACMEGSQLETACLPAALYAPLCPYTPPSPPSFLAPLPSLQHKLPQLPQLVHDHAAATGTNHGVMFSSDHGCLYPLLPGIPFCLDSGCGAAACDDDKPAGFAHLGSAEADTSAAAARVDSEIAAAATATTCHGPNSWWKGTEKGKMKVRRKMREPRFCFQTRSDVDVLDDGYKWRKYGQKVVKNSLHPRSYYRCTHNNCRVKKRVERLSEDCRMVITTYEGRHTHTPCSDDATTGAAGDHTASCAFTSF

This is one part of the list.

The target in the assay is OsWRKY34 (Oryza sativa, UniProt Q0JBA9 1-250). As to the kind of experiment: protein-binding microarray (RPBM); PBS, 2% BSA, 51.3 ng/ul salmon testes DNA, 50 uM zinc acetate, 200 nM TF, 25 C, 1 h; high values mean tight binding. The following applies: protein: recombinant; tags: N-terminal polyhistidine and DsRed monomer fusion (pET32a); label: CyDye5-dUTP incorporated in the synthesized complementary strand; 3' TTTTT single-stranded linker to array surface; dsDNA, one strand shown. The method, boiled down:
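For the binding signal, per-feature fluorescence intensity was read in arbitrary units on an Axon 4000B scanner. Before scanning, a 2% BSA-blocked custom Agilent array made double-stranded with Cy5-dUTP was washed after 1 h at 25 °C with 200 nM protein and 50 µM zinc acetate. The proteins were Ni–NTA-purified transcription factors with N-terminal polyhistidine and DsRed fusions, expressed in E. coli BL21-CodonPlus.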
With “TCATCCATCGCCCATTCGCCCGATGCTGTGAGTTTTCTTTCGGAGTCACCTAGTGCAG”, the binding signal is 13100 fluorescence intensity (a.u.).

For the sequence “GCCGTCGCCGCCGACACCCCGCCATCTCGCGCGACGCCGCCGGAGTCACCTAGTGCAG”, the binding signal is 8040 fluorescence intensity (a.u.). Then “CCGCGAATTTATTTACATTTTCTCATCTCATTTGTTTTCGCGGAGTCACCTAGTGCAG”, with 13900 fluorescence intensity (a.u.); and “CCCTTCTCACTGTTCATGTCGCTCTATCTTTACTCGCCATCGGAGTCACCTAGTGCAG”, with 10500 fluorescence intensity (a.u.). Then “ACCCGCCCCGGCCGGCCACCGTGTAGCAAGTATACTATTTCGGAGTCACCTAGTGCAG”, with 8160 fluorescence intensity (a.u.). As for “GTCTCTGTCCCGTCAAACTGAAGCGAGCGAGAGATTGACCCGGAGTCACCTAGTGCAG”, the binding signal was 8630 fluorescence intensity (a.u.). “CACGGATTCCTACGAGAGGATTCTCGTATTGTTGTGGCCCCGGAGTCACCTAGTGCAG”: the binding signal is 8170 fluorescence intensity (a.u.).

Consider “CAGATTTAAGCAGGTCATCTCCACTGCACATACTACTCAACGGAGTCACCTAGTGCAG”, for which the binding signal was 8620 fluorescence intensity (a.u.). For “CCCGTTGCTGCCAGGTTCAGTTCGTTCAAACCAAACCTACCGGAGTCACCTAGTGCAG”, the binding signal is 9720 fluorescence intensity (a.u.). With “TCTTATTATCGTTACAATGTCACAATATATATCACTATCACGGAGTCACCTAGTGCAG”, the binding signal is 8750 fluorescence intensity (a.u.). On to “GCTAATTATACCACTCGAGCCATTGGTTTCGGCAACAATTCGGAGTCACCTAGTGCAG”, for which the binding signal was 14800 fluorescence intensity (a.u.). Then “TTCCGTTATCCGCCTAACTTTTCTGTTGAGATCGGAACTTCGGAGTCACCTAGTGCAG”, with 9600 fluorescence intensity (a.u.); and “CTTTTCTTCCTTGTCCACCATCCCCAGTTCCCCATCACAACGGAGTCACCTAGTGCAG”, with 9870 fluorescence intensity (a.u.). Then “TTGGTTGCACTCCTGTCTCAACACAGTATTTAACCCATGTCGGAGTCACCTAGTGCAG”, with 8410 fluorescence intensity (a.u.). Then “CATGTGCTGCTCAGTCGCTCAGAGCCTCAGATCACCCACCCGGAGTCACCTAGTGCAG”, with 9370 fluorescence intensity (a.u.). “GCAACTTTTTTTCCAAATGTTTGGCATCTGGTGTGTCATCCGGAGTCACCTAGTGCAG”: the binding signal is 8040 fluorescence intensity (a.u.). Then “TCTCGTTGATTTCTTTTCCCTTTGCCAGCTTTCGCTTTTCCGGAGTCACCTAGTGCAG”, with 13800 fluorescence intensity (a.u.); and “AAAAAGTCAACGGCGTCAAACATTTAGGGATGGAGGGAGTCGGAGTCACCTAGTGCAG”, with 8190 fluorescence intensity (a.u.). Then “GAGATCCGATCGCCTGCCGTTTCCATATTCTTTATCCCCACGGAGTCACCTAGTGCAG”, with 8420 fluorescence intensity (a.u.); and “TTTTAAAACTGATTTATAATCAAAGGTTCTAATGTTTGACCGGAGTCACCTAGTGCAG”, with 9370 fluorescence intensity (a.u.); and “TTTTTTTCATGCCACTTAGGTAGATCGCGCATTGTGTTTTCGGAGTCACCTAGTGCAG”, with 11000 fluorescence intensity (a.u.).

As to “CAACTAACAATCAACTGACGGGAGGGGTATGGAAGGGATCCGGAGTCACCTAGTGCAG”, the binding signal was 9460 fluorescence intensity (a.u.). On to “AATCGGCCGCCGGGCACCTGACCTGACCTGACCTCTCTTCCGGAGTCACCTAGTGCAG”, for which the binding signal was 9210 fluorescence intensity (a.u.).

“ATTGTCCATGATGTTCTTCCTTTTCTTTTTCGTTGTCAAACGGAGTCACCTAGTGCAG”: the binding signal was 10300 fluorescence intensity (a.u.). Then “AGCTCCGTTGATTACTTGGGCTTTTTAATGGATTCGGATGCGGAGTCACCTAGTGCAG”, with 8580 fluorescence intensity (a.u.).

Take “CATTTTCTCCTCCCTGAGTTGACCGTTCCAGTTAGTTTAACGGAGTCACCTAGTGCAG”: the binding signal is 10300 fluorescence intensity (a.u.). Then “CGTTAGTTAATAGAAACATTTGACCGGCTGATTTTTTCCGCGGAGTCACCTAGTGCAG”, with 8110 fluorescence intensity (a.u.). Then “CTCGTCGCCGTGCTACTCTCGCTTTCTCTCTCTCTCTCTCCGGAGTCACCTAGTGCAG”, with 12400 fluorescence intensity (a.u.); and “CATCCCGATGCATATAGCTCTTCTCGTACCTGCAAAACCACGGAGTCACCTAGTGCAG”, with 11900 fluorescence intensity (a.u.). Then “ACCATTCACGTACCCCGCATCGGCCGCACCTCCCCTCGCCCGGAGTCACCTAGTGCAG”, with 11200 fluorescence intensity (a.u.); and “AGGCTGCAGTGGATTGATGGATGGATGGGGATTCATTTGTCGGAGTCACCTAGTGCAG”, with 8030 fluorescence intensity (a.u.); and “TTGACCTTTTCTGTCTCTGTCACTGCAGTGCAATGCGTTTCGGAGTCACCTAGTGCAG”, with 9110 fluorescence intensity (a.u.). With “ATTAATTTTCTCGCTGGTAATTAACTTGCATGTGCACGTCCGGAGTCACCTAGTGCAG”, the binding signal was 9960 fluorescence intensity (a.u.). Then “CCTCTCGCCACGCGCCTCCGCACGAACCCTAGTCTCCTCTCGGAGTCACCTAGTGCAG”, with 8300 fluorescence intensity (a.u.); and “TCCTTCCGCTTCTCAGTCCATCCGTCGCCGCCGCCCGGCCCGGAGTCACCTAGTGCAG”, with 8780 fluorescence intensity (a.u.); and “ATGGAGTTTTGGATTAACACTCTTCTTCCATGGTCTTTTCCGGAGTCACCTAGTGCAG”, with 9150 fluorescence intensity (a.u.).

As for “ACTTCACAGAGAACACTGTAGTTCGATTTTTTTTTACCACCGGAGTCACCTAGTGCAG”, the binding signal is 8630 fluorescence intensity (a.u.). Then “GTCCAATCAAACGGCCATTCCTGTATTTTTCCTATGTTTTCGGAGTCACCTAGTGCAG”, with 11100 fluorescence intensity (a.u.); and “GGTACGTTATTCGTGTTTGAGTCGGTTTTTAAGTTCATTCCGGAGTCACCTAGTGCAG”, with 8180 fluorescence intensity (a.u.).

For the sequence “GCAACTCATGCATCATATCATGCCTCTCTCAACCTATTCACGGAGTCACCTAGTGCAG”, the binding signal is 9450 fluorescence intensity (a.u.). Take “ATTCTTTAGTTAAACTTTTTTTTTTTGCTTTTTCATGAATCGGAGTCACCTAGTGCAG”: the binding signal is 10300 fluorescence intensity (a.u.). Then “GAAGCTCTAAGATGGGCCGTTGACCAGATGGGGAAAAGTCCGGAGTCACCTAGTGCAG”, with 10400 fluorescence intensity (a.u.); and “TGGTGCTCGTCCGCTCGAATCACATCCGTTTTTCCCAATCCGGAGTCACCTAGTGCAG”, with 8380 fluorescence intensity (a.u.); and “GGGATTTTTTCTAACTCTCAGTTGATAATTTTGTCTTTTTCGGAGTCACCTAGTGCAG”, with 8040 fluorescence intensity (a.u.). “GATTTCACGGGCCTCCTTCTCTTGTATATCCACAAACCCTCGGAGTCACCTAGTGCAG”: the binding signal is 9820 fluorescence intensity (a.u.). Then “TGACTGCCATTTTTGAAAATCGATCGGGGATGTTGTAAGTCGGAGTCACCTAGTGCAG”, with 8590 fluorescence intensity (a.u.). Then “TCTTCCACAGTTCCACTCCTCCCTCACTCTCTCCCACAGTCGGAGTCACCTAGTGCAG”, with 8660 fluorescence intensity (a.u.); and “TAGTATGCATGCTTTTTTTTATTCTTTCTCACTACACACTCGGAGTCACCTAGTGCAG”, with 8730 fluorescence intensity (a.u.). Turning to “GGGCGGTGGAGGCGGAGCTCCCCTGGCGGTGGGCGGTGGGCGGAGTCACCTAGTGCAG”, the binding signal is 10500 fluorescence intensity (a.u.).

For “CCAACTAAAGCCATACACACCACTGCTATCACTATACAACCGGAGTCACCTAGTGCAG”, the binding signal is 8750 fluorescence intensity (a.u.). Then “GGGGAGGGTTTCGTGCTCCTAGCCTCACCTTCCTCTCGACCGGAGTCACCTAGTGCAG”, with 10000 fluorescence intensity (a.u.). Then “TATTAATACCTCATCTTGTCGTCTCGTATCATCTCATCTCCGGAGTCACCTAGTGCAG”, with 12200 fluorescence intensity (a.u.).

In the case of “GCCGCCGCCACCGCCACCGCCACCGCCCACCTCCGCCGCCCGGAGTCACCTAGTGCAG”, the binding signal is 9520 fluorescence intensity (a.u.). Take “TTCGCTTTTTTGCTCTTCAGTTCAATCATGTTCCTTAGTTCGGAGTCACCTAGTGCAG”: the binding signal is 8070 fluorescence intensity (a.u.).
